Experimental data from PubChem BioAssay AID200 (DTP/NCI, 2004).
The list shows only some results of the screen, not a fair sample: it gathers tests that were run many times, whatever their T/C, doses with no T/C, and many T/C values between a quarter and a half above the control. Other doses and runs of a compound stand elsewhere. T/C: endpoint of the treated group in % of that of the vehicle group. Some entries give survivors of the animals treated and no T/C: the source holds a T/C of zero for them, seemingly a mark for toxic or unscored doses. Some doses without a T/C left all or most animals alive at the check, yet need not have been tolerated: the source hardly ever lists a survival T/C far under the control, and the zero likely stands for such cases as well. Counts of survivors are from the toxicity check (mostly the fifth day) where no day follows; animals may have died later. Schedules are NCI's codes, taken here to give the interval after Q, in days (D) or hours (H), and the number of doses after X. Some entries were tested several times; their values stand side by side, smallest first. Where survival is the endpoint, this PubChem deposit counts one and a half times the control or more as active, and values a quarter to a half above the control carry no call in these data; other NCI protocols may use other cut-offs. Some T/C values are followed by the survivors on the day toxicity was checked, most often the fifth; without a count, all were alive then.

Test system: B6C3F1 mice, B16 melanoma ip, median survival T/C
Assay: NCI In Vivo Anticancer Drug Screen. Data for tumor model B16 Melanoma (intraperitoneal) in B6C3F1 mice
Conditions: T/C endpoint: median survival time, schedule: Q01DX009 (ip), higher T/C = longer survival
Summary of the method: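 Antitumor effect was judged in mice with transplanted tumors by dividing the treated group's survival measure by that of vehicle controls.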

[1] = dose: 400.0 mg/kg/injection, vehicle: Klucel (hydroxypropylcellulose) (HPC)
[2] = dose: 25.0 mg/kg/injection, vehicle: Klucel (hydroxypropylcellulose) (HPC)
[3] = dose: 100.0 mg/kg/injection, vehicle: Klucel (hydroxypropylcellulose) (HPC)
[4] = dose: 200.0 mg/kg/injection, vehicle: Klucel (hydroxypropylcellulose) (HPC)
[5] = dose: 200.0 mg/kg/injection, vehicle: saline

SMILES: C=C1C(=O)[C@]23C[C@H]1CC[C@H]2[C@@]12CO[C@@H](O)[C@@H]1C(C)(C)[C@@H](O)C[C@@H]2OC3=O
- survivor count (dose: 100.0 mg/kg/injection, vehicle: saline with Tween-80): 1 of 10
- survivor count (dose: 200.0 mg/kg/injection, vehicle: saline with Tween-80): 2 of 10
- survivor count (dose: 400.0 mg/kg/injection, vehicle: saline with Tween-80): 0 of 10

SMILES: CC(=O)O[C@@H]1CO[C@H]2O[C@H]3[C@@H](C(C=O)=C[C@H](O)[C@@H]4C5=C(C(C)C)CC[C@]5(C)CC[C@@]34C)[C@@]2(O)C1=O
- survivor count (dose: 6.0 mg/kg/injection, vehicle: Klucel (hydroxypropylcellulose) (HPC)): 8 of 10
- survivor count (dose: 12.0 mg/kg/injection, vehicle: Klucel (hydroxypropylcellulose) (HPC)): 0 of 10
- survivor count (dose: 24.0 mg/kg/injection, vehicle: Klucel (hydroxypropylcellulose) (HPC)): 0 of 10

SMILES: CNC[C@@H](O)c1ccc(O)c(O)c1
- survivor count (dose: 6.0 mg/kg/injection, vehicle: suspension in saline): 3 of 10
- survivor count (dose: 12.0 mg/kg/injection, vehicle: suspension in saline): 0 of 10

SMILES: Nc1nc(-c2ccccc2)c(Br)c(=O)[nH]1
- T/C (dose: 50.0 mg/kg/injection, vehicle: saline with Tween-80): 132 % of control
- T/C (dose: 100.0 mg/kg/injection, vehicle: saline with Tween-80, evaluated on day 55): 132 % of control
- T/C (dose: 100.0 mg/kg/injection, vehicle: saline with Tween-80, evaluated on day 60): 155, 160, 189 % of control
- T/C (dose: 200.0 mg/kg/injection, vehicle: saline with Tween-80, evaluated on day 55): 122 % of control
- T/C (dose: 200.0 mg/kg/injection, vehicle: saline with Tween-80, evaluated on day 60): 113, 168, 173 % of control
- T/C (dose: 400.0 mg/kg/injection, vehicle: saline with Tween-80, evaluated on day 55): 155 % of control
- T/C (dose: 400.0 mg/kg/injection, vehicle: saline with Tween-80, evaluated on day 60): 143, 154, 198 % of control

SMILES: CCOC(=O)CNC(=O)Sc1ccc(C(C)(C)C)cc1
- survivor count [1]: 0 of 9

SMILES: CCCCNC(C)C1(O)Cc2c(O)c3c(c(O)c2C(OC2CC(N)C(O)C(C)O2)C1)C(=O)c1c(OC)cccc1C3=O (centres undefined)
- survivor count (dose: 160.0 mg/kg/injection, vehicle: saline): 10 of 10

SMILES: Cc1c(-c2ccc(C3CCCCC3)cc2)nc2ccc(F)cc2c1C(=O)O
- T/C [2]: 125 and 127 % of control
- T/C (dose: 50.0 mg/kg/injection, vehicle: Klucel (hydroxypropylcellulose) (HPC)): 138, 142, 148 % of control
- T/C [3]: 145 and 149 % of control [9 of 10 alive]
- T/C [4]: 145 % of control
- T/C [1]: 131 % of control

SMILES: C[C@@H]1C[C@@H]([C@H](O)CC2CC(=O)NC(=O)C2)C(=O)[C@@H](C)C1
- survivor count (dose: 100.0 mg/kg/injection, vehicle: saline): 6 of 9
- survivor count [5]: 1 of 9

SMILES: CC[PH+](CC)CC[S-].CC[PH+](CC)CC[S-].[Au+].[Au+]
- survivor count (dose: 80.0 mg/kg/injection, vehicle: Klucel (hydroxypropylcellulose) (HPC)): 9 of 10

SMILES: O=C(/C=C(\Cl)C(=O)NO)NO
- survivor count (dose: 50.0 mg/kg/injection, vehicle: saline): 10 of 10
- survivor count [5]: 5 of 10 and 9 of 10

SMILES: Nc1ncnc2c1c1c(=O)[nH]c(=O)[nH]c1n2C1OC(CO)C(O)C1O (centres undefined)
- T/C (dose: 50.0 mg/kg/injection, vehicle: distilled water + Tween-80): 132 % of control
- T/C (dose: 100.0 mg/kg/injection, vehicle: distilled water + Tween-80): 125 % of control
- T/C (dose: 400.0 mg/kg/injection, vehicle: distilled water + Tween-80): 147 % of control [9 of 10 alive]

SMILES: CN1CCc2c(c3ccccc3c3ccccc23)C1
- T/C [2]: 134 % of control
- survivor count [3]: 2 of 7
- survivor count [4]: 0 of 7
- survivor count [1]: 0 of 7
